The target of this assay is nuclear receptor corepressor 1 (NCoR1)-FLAG, full length, expressed in MEF cells (mouse) (UniProt Q60974). Description: affinity purification with mass spectrometry; MEF cells transfected with pcDNA-GFP-FLAG (control) or pCMX-NCoR1-FLAG, lysed 48 h later (25 mM Tris pH 7.9, 150 mM NaCl, 1 mM EDTA, 1% Triton X-100); NCoR1 precipitated with anti-NCoR1 antibody and Protein A/G magnetic beads overnight at 4 °C, eluted with 0.1 M glycine pH 2.2; LC-MS/MS, three independent samples.

Sequences of proteins named here, by UniProt entry; tags and fusion partners are left off.
UniProt Q60974: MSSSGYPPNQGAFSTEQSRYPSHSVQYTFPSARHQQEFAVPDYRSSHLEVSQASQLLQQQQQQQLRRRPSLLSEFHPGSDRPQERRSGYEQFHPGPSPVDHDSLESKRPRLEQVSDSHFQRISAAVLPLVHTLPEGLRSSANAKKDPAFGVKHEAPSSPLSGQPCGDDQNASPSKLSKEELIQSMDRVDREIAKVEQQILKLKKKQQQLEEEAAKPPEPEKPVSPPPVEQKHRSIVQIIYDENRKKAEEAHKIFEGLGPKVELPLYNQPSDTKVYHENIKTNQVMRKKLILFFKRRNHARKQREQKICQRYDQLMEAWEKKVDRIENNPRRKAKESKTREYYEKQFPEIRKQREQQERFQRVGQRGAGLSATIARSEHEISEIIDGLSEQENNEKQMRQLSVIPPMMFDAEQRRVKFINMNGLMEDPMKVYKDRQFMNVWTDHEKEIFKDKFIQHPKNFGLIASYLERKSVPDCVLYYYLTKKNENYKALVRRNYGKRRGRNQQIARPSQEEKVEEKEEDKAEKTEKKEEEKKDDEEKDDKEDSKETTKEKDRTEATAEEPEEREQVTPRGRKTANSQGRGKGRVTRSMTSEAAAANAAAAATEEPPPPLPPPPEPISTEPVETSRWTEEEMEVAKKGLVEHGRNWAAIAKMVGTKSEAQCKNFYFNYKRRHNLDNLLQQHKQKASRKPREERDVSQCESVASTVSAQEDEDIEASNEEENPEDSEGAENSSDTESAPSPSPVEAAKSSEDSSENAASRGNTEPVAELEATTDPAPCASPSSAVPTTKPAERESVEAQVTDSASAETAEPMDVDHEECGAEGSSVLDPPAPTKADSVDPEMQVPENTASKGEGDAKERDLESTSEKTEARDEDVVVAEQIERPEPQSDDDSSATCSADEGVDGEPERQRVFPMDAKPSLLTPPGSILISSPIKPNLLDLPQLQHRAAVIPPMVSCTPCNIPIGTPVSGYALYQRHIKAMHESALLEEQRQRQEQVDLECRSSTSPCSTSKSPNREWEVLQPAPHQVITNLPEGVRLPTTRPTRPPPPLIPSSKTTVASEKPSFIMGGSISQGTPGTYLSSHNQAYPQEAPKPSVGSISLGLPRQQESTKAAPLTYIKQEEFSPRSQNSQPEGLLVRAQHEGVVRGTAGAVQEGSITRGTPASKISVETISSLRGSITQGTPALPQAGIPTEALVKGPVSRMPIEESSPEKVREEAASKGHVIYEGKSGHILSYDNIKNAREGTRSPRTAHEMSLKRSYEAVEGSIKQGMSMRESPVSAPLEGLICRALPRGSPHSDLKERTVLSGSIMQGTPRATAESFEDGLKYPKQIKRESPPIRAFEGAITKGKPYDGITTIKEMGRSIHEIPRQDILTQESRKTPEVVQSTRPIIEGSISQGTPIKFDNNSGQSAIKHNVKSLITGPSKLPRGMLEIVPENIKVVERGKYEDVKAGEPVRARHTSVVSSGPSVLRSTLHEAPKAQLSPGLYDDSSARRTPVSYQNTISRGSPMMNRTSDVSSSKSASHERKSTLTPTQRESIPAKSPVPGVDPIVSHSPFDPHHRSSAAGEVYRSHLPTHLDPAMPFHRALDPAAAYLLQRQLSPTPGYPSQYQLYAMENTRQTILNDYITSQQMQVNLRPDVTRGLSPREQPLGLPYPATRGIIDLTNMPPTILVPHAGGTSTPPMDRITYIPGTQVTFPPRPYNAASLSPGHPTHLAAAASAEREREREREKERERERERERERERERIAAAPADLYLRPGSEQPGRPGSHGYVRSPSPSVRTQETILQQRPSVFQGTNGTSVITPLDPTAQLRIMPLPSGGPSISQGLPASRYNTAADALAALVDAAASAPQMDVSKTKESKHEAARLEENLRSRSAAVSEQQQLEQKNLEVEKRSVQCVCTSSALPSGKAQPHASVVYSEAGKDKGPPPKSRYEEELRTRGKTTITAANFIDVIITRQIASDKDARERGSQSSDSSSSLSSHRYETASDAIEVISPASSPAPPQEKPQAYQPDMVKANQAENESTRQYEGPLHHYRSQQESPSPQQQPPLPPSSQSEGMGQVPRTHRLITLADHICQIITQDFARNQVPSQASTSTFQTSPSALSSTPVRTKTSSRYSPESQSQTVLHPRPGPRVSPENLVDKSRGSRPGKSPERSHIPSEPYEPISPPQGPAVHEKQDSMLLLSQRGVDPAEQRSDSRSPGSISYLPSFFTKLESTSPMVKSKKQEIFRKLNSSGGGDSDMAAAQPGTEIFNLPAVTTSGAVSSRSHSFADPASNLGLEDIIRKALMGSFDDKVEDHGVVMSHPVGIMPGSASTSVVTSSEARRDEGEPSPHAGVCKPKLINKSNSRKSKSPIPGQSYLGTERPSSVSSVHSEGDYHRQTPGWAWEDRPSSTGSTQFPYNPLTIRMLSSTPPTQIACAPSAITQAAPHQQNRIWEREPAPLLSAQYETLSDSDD
UniProt Q6PHQ9: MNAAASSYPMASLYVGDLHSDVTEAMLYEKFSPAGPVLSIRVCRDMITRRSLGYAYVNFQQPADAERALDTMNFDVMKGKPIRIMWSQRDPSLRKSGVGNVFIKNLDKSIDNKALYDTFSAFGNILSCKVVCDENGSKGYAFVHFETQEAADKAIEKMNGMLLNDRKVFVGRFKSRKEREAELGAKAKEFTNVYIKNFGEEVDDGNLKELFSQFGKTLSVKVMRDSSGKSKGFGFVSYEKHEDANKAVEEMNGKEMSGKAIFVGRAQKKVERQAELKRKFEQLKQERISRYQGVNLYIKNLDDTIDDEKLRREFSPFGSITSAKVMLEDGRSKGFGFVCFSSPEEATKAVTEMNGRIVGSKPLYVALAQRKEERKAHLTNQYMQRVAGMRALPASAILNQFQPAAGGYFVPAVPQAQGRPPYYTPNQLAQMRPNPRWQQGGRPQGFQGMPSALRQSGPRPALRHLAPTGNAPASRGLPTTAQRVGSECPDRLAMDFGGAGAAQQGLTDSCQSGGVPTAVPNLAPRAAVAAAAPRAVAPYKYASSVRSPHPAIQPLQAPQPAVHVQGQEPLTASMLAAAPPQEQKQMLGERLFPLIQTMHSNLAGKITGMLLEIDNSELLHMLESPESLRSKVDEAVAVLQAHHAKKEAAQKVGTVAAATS

Results are given in words; binding and its absence hold for the method and conditions named. In cells and extracts the contact can be indirect. These calls come from enrichment with a bait or labelling near it, and not all partners need be listed.

As for “poly(A)-binding protein cytoplasmic 4 (PABPC4), endogenous in MEF cells (from UniProt Q6PHQ9 1-660)”, the binding entry was “binds”.

B1: exchange factor TBL1X (protein, UniProt Q9QXE7 1-527)
chain: MSITSDEVNFLVYRYLQESGFSHSAFTFGIESHISQSNINGTLVPPAALISILQKGLQYVEAEISINEDGTVFDGRPIESLSLIDAVMPDVVQTRQQAFREKLAQQQANAAAAAAAAAATATSTAATTPAAAAQQNPPKNGEATVNGEENGAHAINNHSKPMEIDGDVEIPPSKATVLRGHESEVFICAWNPVSDLLASGSGDSTARIWNLNENSNGGSTQLVLRHCIREGGHDVPSNKDVTSLDWNSDGTLLATGSYDGFARIWTEDGNLASTLGQHKGPIFALKWNKKGNYILSAGVDKTTIIWDAHTGEAKQQFPFHSAPALDVDWQNNTTFASCSTDMCIHVCRLGCDRPVKTFQGHTNEVNAIKWDPSGMLLASCSDDMTLKIWSMKQDACVHDLQAHSKEIYTIKWSPTGPATSNPNSNIMLASASFDSTVRLWDVERGVCIHTLTKHQEPVYSVAFSPDGKYLASGSFDKCVHIWNTQSGSLVHSYRGTGGIFEVCWNARGDKVGASASDGSVCVLDLRK
As for B1, the binding entry was “binds”.

Source of the values: PMC10203745.
